# Results: publication PMC4657049
# By UniProt entry, the sequences of proteins in these tests, tags left out. Residues count along the entry.
# UniProt P01024, residues 1002-1303: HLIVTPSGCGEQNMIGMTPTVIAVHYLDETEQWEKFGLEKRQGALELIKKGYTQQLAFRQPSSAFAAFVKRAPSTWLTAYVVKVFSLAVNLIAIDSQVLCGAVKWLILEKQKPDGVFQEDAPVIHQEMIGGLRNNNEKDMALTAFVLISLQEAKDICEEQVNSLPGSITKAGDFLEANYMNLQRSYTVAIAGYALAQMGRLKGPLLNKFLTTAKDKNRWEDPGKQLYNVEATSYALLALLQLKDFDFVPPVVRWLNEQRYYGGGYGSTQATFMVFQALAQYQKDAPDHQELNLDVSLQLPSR
# UniProt A6QG59, residues 30-165: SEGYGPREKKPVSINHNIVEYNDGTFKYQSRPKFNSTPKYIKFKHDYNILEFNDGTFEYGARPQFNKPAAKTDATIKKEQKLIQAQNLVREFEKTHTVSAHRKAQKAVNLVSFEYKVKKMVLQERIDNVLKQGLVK
# No constants are given. Whether binding was seen depends on the method and setting. Some results given as binding are weak or reduced against the parent protein; the word gives no strength.
# Molecular target: human complement C3d (human) (UniProt P01024)
# Assay: ELISA; competitive ELISA: C3d coated (1 ug/well), incubated with Efb prior to addition of eLtaS (9.6-1.2 uM); bound Efb detected with anti-Efb antibodies; both purified
substance,measurement,value
S. aureus Efb (extracellular fibrinogen binding protein) (from UniProt A6QG59 30-165),binding,binds
